# Source: PubChem BioAssay AID602330 (Sanford-Burnham Center for Chemical Genomics, 2012)
# By UniProt entry, the sequences of proteins in these tests, tags left out. Where a name states a change or a piece, a line headed by the entry shows the natural chain unless it says otherwise.
# UniProt P08253: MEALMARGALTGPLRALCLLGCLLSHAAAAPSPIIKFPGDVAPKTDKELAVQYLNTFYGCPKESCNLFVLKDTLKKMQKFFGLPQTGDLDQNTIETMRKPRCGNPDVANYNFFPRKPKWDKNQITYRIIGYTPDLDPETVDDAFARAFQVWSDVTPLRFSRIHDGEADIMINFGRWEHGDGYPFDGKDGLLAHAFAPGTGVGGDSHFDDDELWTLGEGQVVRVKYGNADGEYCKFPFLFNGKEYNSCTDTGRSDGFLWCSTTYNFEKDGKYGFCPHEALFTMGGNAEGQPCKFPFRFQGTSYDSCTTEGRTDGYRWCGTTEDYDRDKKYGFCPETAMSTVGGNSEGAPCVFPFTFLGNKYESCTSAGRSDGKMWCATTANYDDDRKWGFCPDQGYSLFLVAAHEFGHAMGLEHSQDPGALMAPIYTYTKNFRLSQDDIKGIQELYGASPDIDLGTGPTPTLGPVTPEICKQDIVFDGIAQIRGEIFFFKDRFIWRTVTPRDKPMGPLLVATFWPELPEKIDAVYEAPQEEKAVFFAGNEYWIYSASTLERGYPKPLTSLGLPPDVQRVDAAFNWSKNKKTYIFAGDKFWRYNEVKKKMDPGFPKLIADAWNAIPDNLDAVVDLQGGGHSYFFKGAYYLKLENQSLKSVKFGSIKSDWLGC
# About 85 (4%) of roughly 1,900 compounds were called active. No stated cut-off is given here; in the data, active means inhibition above about 40%; inactive means the rest. The entries are a selection whose mix differs from that of the whole data set.
# Target: 72 kDa type IV collagenase (Homo sapiens) (UniProt P08253)
# Test: inhibitors of human MMP-2 protease – biochemical, fluorescence, single concentration, counter-screen for RPN11 inhibitor project, confirmation (AID 602330);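 further: human MMP-2 activated beforehand with APMA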
# Details: recombinant MMP-2, FRET peptide cleavage fluorescence; at 20 µM; hits give high values
row,Compound,inhibition
1,Cc1ccc(/C=C2\C(=O)NC(=S)N(c3ccc(F)cc3)C2=O)o1,active: 54.9%
2,Cc1cccc(N2C(=O)NC(=O)/C(=C\c3cnn(-c4ccccc4)c3)C2=O)c1,inactive: 39.2%
